This is one part of the list. These are further read-outs of the screen, such as a control signal, another cell line or another target. No call is given for them. Most of these compounds were active or inconclusive in the main read-out, so they are no random draw. The note in brackets gives the kind of curve behind each potency; many fits are weak.
Assay: qHTS Assay for Modulators of Lamin A Splicing
Details: HeLa LMNA splicing GFP/RFP minigene ratio, 48 h
Summary of the method: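 Read-out is the ratio of GFP to DsRed2 object intensity, acquired by 488 nm laser-scanning cytometry on HeLa lamin A-EGFP minigene reporter cells. Compound incubation 48 hrs at 37 °C in Opti-MEM with 2% FBS; DMSO 0.5% final.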

[1] = measured here: GFP splicing reporter channel
[2] = measured here: RFP viability control channel

SMILES	AC50 [1]	AC50 [2]
CCCNC(=O)c1cc(-c2ccco2)on1	35.5 µM [falling, single point]	35.5 µM [falling, single point]
COC(=O)c1cc2c(ccn2-c2ccc(F)cc2)n1Cc1cccc(OC)c1		11.2 µM [rising, partial curve, poor fit]
Cc1cc2ncc(C(N)=O)cn2n1	11.2 µM [rising, partial curve]	11.2 µM [rising, partial curve, poor fit]
CSc1ccc(CNC(=O)c2ccccc2NC(=O)c2nsc3ccccc23)cc1	3.98 µM [rising, partial curve]	5.62 µM [rising, partial curve]
CCOC(=O)c1cnc(SCC(=O)Nc2ccccc2C(=O)OC)nc1N		28.2 µM [rising, single point]
CCCCN1CCc2nc(N3CCN(c4ncccn4)CC3)ncc2C1		15.8 µM [rising, single point]
Cc1ccc(NC(=O)CSc2nc3c([nH]c4ccccc43)c(=O)n2-c2ccccc2)c(C)c1		10 µM [rising, partial curve, poor fit]
Cc1ccc(N2CCN(C(=S)c3ccc(N(C)C)cc3)CC2)cc1	0.891 µM [rising, single point]	8.91 µM [rising, partial curve]
Cc1cnc(C(=O)Nc2ccc(C(C)C)cc2)cn1		35.5 µM [rising, single point]
COCCn1c(CN2CCN(c3ccc(OC)cc3)CC2)nc2c1c(=O)n(C)c(=O)n2C	11.2 µM [rising, single point]	17.8 µM [rising, single point]
COc1ccc(/C(C)=N/OCC(=O)Nc2nc3ccccc3s2)cc1OC		35.5 µM [rising, single point]
N#Cc1cc(S(=O)(=O)c2ccccc2)c(N)[nH]c1=O		20 µM [rising, single point]
COc1ccccc1N1CCN(C(=O)Cn2c(=O)nc(-c3ccccc3)c3cc(Cl)ccc32)CC1		0.447 µM [falling, full curve]
CCOc1ccc(C(=O)Nc2ccc3nc(SCc4ccccc4)sc3c2)cc1		14.1 µM [falling, partial curve, poor fit]
COc1ccccc1/C=C/C(=O)c1ccccc1		4.47 µM [falling, single point]
CC1CC1c1ccc(/C=C(\C#N)C(=O)Nc2ccc(Cl)cc2)o1 (stereo not given)		17.8 µM [rising, single point]
O=C1C2CC=CCC2C(=O)N1Cc1ccccc1Cl (stereo not given)	25.1 µM [rising, single point]	
O=C(COC(=O)c1ccccc1C(=O)c1ccc(Cl)c([N+](=O)[O-])c1)NC1CCCCCC1	35.5 µM [falling, single point]	35.5 µM [falling, single point]
COc1cc(C)c(NC(=S)Nc2ccc(Cl)c(Cl)c2)cc1OC		12.6 µM [rising, single point]
Cc1cc(C(=O)COc2cccnc2[N+](=O)[O-])c(C)n1Cc1ccco1	11.2 µM [rising, partial curve, poor fit]	20 µM [rising, single point]
CC(=O)c1sc(NC(=O)c2cccnc2Cl)nc1C	0.00501 µM [rising, full curve, poor fit]	
CN(C)c1ccc(-c2nc(N(C)C)c3ccccc3n2)cc1	35.5 µM [falling, single point]	
C/C(=N\NC(=O)c1nn(C)cc1Br)c1cccc(NC(=O)c2ccncc2)c1	1.58 µM [rising, partial curve]	1.78 µM [rising, partial curve]
COCCNc1nc(=S)[nH]c2cc(OC)c(OC)cc12		15.8 µM [rising, single point]
O=C(Nc1ccc2c(c1)OCO2)C1CCN(C(=O)CSc2ncnc3ccccc23)CC1	15.8 µM [rising, single point]	11.2 µM [rising, partial curve]
Cc1ccc(NCCC(=O)c2cccs2)cc1C	8.91 µM [falling, partial curve]	
FC(F)Sc1ccc(NC(=S)NC2CCCC2)cc1	25.1 µM [falling, partial curve]	11.2 µM [falling, partial curve]
CCOc1ccccc1NC(=O)CN1C(=O)C2(SCC(=O)N2c2cccc(F)c2)c2ccccc21 (stereo not given)		35.5 µM [rising, partial curve, poor fit]

SMILES	AC50 [1]	AC50 [2]
O=C(Nc1ccc(F)c(Cl)c1)c1cc(S(=O)(=O)N2CCCc3ccccc32)ccc1F	0.355 µM [falling, full curve, poor fit]	1.12 µM [falling, full curve, poor fit]
COc1ccc(C(=O)/C(=C/O)N=Nc2ccc(F)cc2)cc1	15.8 µM [falling, single point]	22.4 µM [falling, partial curve, poor fit]
Cc1cnc(C(=O)Nc2ccc(C)c(S(=O)(=O)N(C)C)c2)cn1		3.55 µM [falling, partial curve]
CC1CC(C)CN(C(=O)COC(=O)c2cc3ccccc3cc2O)C1 (stereo not given)	15.8 µM [rising, single point]	14.1 µM [rising, single point]
Cc1ccc(CSc2nc3ccccc3cc2C=O)cc1	1.58 µM [falling, full curve]	2 µM [falling, full curve]
Cn1c(CNc2nc3ccccc3n2C)nc2ccccc21	17.8 µM [rising, partial curve, poor fit]	31.6 µM [rising, partial curve, poor fit]
COCCn1c(=O)c(-c2ccc(Cl)cc2)nc2cnc(N3CCNCC3)nc21	11.2 µM [falling, single point]	14.1 µM [falling, partial curve]
CC1=NN(c2ccccc2)C(=O)C1C(=O)c1ccccc1 (stereo not given)		14.1 µM [rising, single point]
Cc1c(OC(=O)CNC(=O)OC(C)(C)C)ccc2c3c(c(=O)oc12)CCC3		35.5 µM [rising, single point]
COc1ccc(CC(=O)Nc2nc(C)cs2)cc1OC	2.24 µM [rising, full curve, poor fit]	12.6 µM [rising, partial curve]
CC1Cc2ccccc2N1C(=O)CO/N=C/c1ccc(OC(F)F)cc1 (stereo not given)	20 µM [rising, single point]	20 µM [rising, single point]
COc1ccc(/C=C/c2noc(-c3ccccc3O)n2)cc1	0.00447 µM [falling, full curve, poor fit]	1.78 µM [falling, single point]
COc1ccc(CNC(=O)c2ccc3c(c2)nc2n3CCCCC2)c(OC)c1	1.26 µM [rising, partial curve]	3.55 µM [rising, partial curve]
CCOC(=O)C1(S(=O)(=O)c2ccccc2)CCN(Cc2ccc(Cl)cc2)CC1		17.8 µM [rising, single point]
CN1C(=O)CS(=O)c2ccc(C(=O)NCCC3=CCCCC3)cc21 (stereo not given)		15.8 µM [rising, partial curve, poor fit]
O=C(CCn1[nH]c(=O)c2ccccc2c1=O)OC1CCCCC1	7.94 µM [rising, partial curve, poor fit]	3.16 µM [rising, partial curve]
O=C(Nc1ccc2c(c1)OCO2)C1CCN(Cc2cnn(-c3ccccc3)c2-n2cccc2)CC1		25.1 µM [rising, single point]
CCOc1ccc(NC(=O)NCCCSC2CCCCC2)cc1	17.8 µM [rising, single point]	20 µM [rising, single point]
CCC(C)NCC(=O)Nc1cc(S(=O)(=O)N(CC)c2ccccc2)ccc1Cl (stereo not given)		35.5 µM [rising, single point]
CCOc1ccc(-n2c(=O)c3sccc3n(CC(=O)Nc3cccc(OC)c3)c2=O)cc1		3.16 µM [rising, partial curve, poor fit]
COc1ccc(NC(=O)COCc2cc(-c3cccs3)on2)cc1	3.16 µM [rising, single point]	
CC12CCC(C1)C(C)(C)C2=O (stereo not given)	0.00631 µM [falling, full curve, poor fit]	
Oc1ccc(-c2[nH]ncc2-c2cccc3cccnc23)c(O)c1		22.4 µM [rising, single point]
Nc1c(C(=O)NCCN2CCOCC2)c2nc3ccccc3nc2n1CCc1ccccc1		35.5 µM [rising, single point]
COc1ccc(NC(=O)CC2C(=O)N(c3ccc(OC)cc3)C(=S)N2NC(=O)c2cccc(F)c2)cc1 (stereo not given)	35.5 µM [falling, single point]	17.8 µM [falling, single point]
CCOC(=O)c1cccc(NC(=O)C2CCN(S(=O)(=O)c3cn(C)cn3)CC2)c1	1.78 µM [falling, full curve, poor fit]	0.158 µM [falling, full curve, poor fit]
CCCc1c(NC(=O)Nc2ccc(Cl)cc2Cl)cnn1-c1ccccc1	7.08 µM [falling, partial curve, poor fit]	22.4 µM [falling, partial curve, poor fit]

Quoted at random: four records from the list, in no set order.
SMILES	AC50 [1]	AC50 [2]
CC12CCC(C1)C(C)(C)C2=O (stereo not given)	0.00631 µM [falling, full curve, poor fit]	
COc1ccc(CNC(=O)c2ccc3c(c2)nc2n3CCCCC2)c(OC)c1	1.26 µM [rising, partial curve]	3.55 µM [rising, partial curve]
Cc1c(OC(=O)CNC(=O)OC(C)(C)C)ccc2c3c(c(=O)oc12)CCC3		35.5 µM [rising, single point]
CC1CC(C)CN(C(=O)COC(=O)c2cc3ccccc3cc2O)C1 (stereo not given)	15.8 µM [rising, single point]	14.1 µM [rising, single point]

Reference: PubChem BioAssay AID1487 (National Center for Advancing Translational Sciences (NCATS), 2009)
